Molecules are shown by their SMILES. The list shows a part of the results. The main result of the screen is listed elsewhere. These columns were measured beside it and carry no call. Compounds called inactive in the main read-out are mostly missing here. Potencies come from curve fits of mixed quality, noted in brackets.

The test in a line: IkB Signaling. The conditions noted are these: ABC-DLBCL IkBa-CBG/CBR dual luciferase ratio (green luciferase fused to IkBa over red control in OCI-Ly3 lymphoma cells), 4 h. A digest of the protocol:
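Curves were fitted separately to fusion (green), unfused (red) and ratio luminescence, then classed by r2, magnitude and activity. Cells: OCI-Ly3, 4 h compound plus doxycycline at 37C; 10 uM MG-132 defined full response.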

The mark [1] stands for this setting: measured here: control luc red channel unless noted.

For the molecule `O=C(Cn1nc(Cc2cccnc2)c2ccccc2c1=O)Nc1ccc(F)c(Cl)c1`, under setting [1], the concentration at half-maximal activity (AC50) (usually the concentration giving half of the maximal activity seen) is 39.8 µM [falling, single point]. The same measure, in the same setting: for `COc1cccc(CNC(=O)c2sc3ncccc3c2-n2c(C)ccc2C)c1OC` the value was 12.6 µM [falling, partial curve]; for `COc1ccc(C(=O)NCC(c2ccc(Cl)cc2)N2CCCCC2)cc1` (stereo unspecified), 31.6 µM [falling, single point]. As for `CCC(C(=O)Nc1cc(C(F)(F)F)ccc1Cl)n1nc(C)c2sc3ccccc3c2c1=O` (stereo unspecified), under setting [1], the half-maximal activity concentration (AC50) was 15.8 µM [falling, partial curve]. `COc1ccccc1CNC(=O)Cn1nc(C)n2cccc2c1=O`: the AC50 under setting [1] is 7.94 µM [falling, full curve].

Regarding `O=C(Cn1cnc2onc(-c3ccc(F)cc3)c2c1=O)N1CCN(c2ccc(F)cc2)CC1`, under setting [1], the AC50 was 31.6 µM [falling, single point]. In the case of `Cc1ccc(Cc2c(C)nc3nc(SCC(=O)NCCC(C)C)nn3c2C)cc1`, the concentration at half-maximal activity (AC50) under setting [1] was 15.8 µM [falling, partial curve]. On the same count and under the same terms, for `Cc1ccc(CN2C(=O)SC(Nc3ccc(Cl)cc3)C2=O)cc1` (stereo unspecified) the value was 15.8 µM [falling, partial curve]. Still for that read-out and setting: for `CC1CCN(c2nc3ccc(C(=O)NC(C)C)cc3s2)CC1` the value was 3.16 µM [falling, partial curve]; for `Cn1c(=O)[nH]c(=O)c2c1nc(Br)n2CCCSc1nc2ccccc2o1`, 20 µM [falling, single point]. Regarding `O=C(Nc1onc2c1CCCC2)c1ccccc1`, under setting [1], the AC50 was 6.31 µM [rising, partial curve, poor fit]. The same measure, in the same setting: for `CC1CCN(C(=O)c2ccc3c(c2)N(Cc2ccccc2F)C(=O)c2ccccc2S3(=O)=O)CC1` the value was 25.1 µM [falling, single point]; for `Cc1c(Cl)cccc1-n1ncc(C(=O)N2CCN(C)CC2)c1C1CCN(C(=O)OC(C)(C)C)CC1`, 25.1 µM [falling, single point]. For the molecule `COc1ccc(S(=O)(=O)n2nc(C)c(S(=O)(=O)N3CCCCC3)c2C)cc1`, the AC50 under setting [1] was 0.0251 µM [falling, full curve, poor fit]. Turning to `COc1ccccc1N1CCN(C(=O)c2cc3c(=O)n(C)c4ccccc4c3s2)CC1`, the AC50 under setting [1] is 39.8 µM [falling, single point].

With `COc1ccc(-c2nc(SCC(=O)NC3CCCC3)c(-c3ccc(OC)cc3)[nH]2)cc1`, the concentration at half-maximal activity (AC50) under setting [1] is 20 µM [falling, partial curve]. Same read-out and setting: for `C=C(C)Cn1c(SCC(=O)Nc2ccccc2C)nc2sc3c(c2c1=O)CCCC3` the value was 12.6 µM [falling, partial curve]; for `Cc1ccc(NC(=O)c2cc(-c3ccco3)on2)cc1`, 2.51 µM [falling, full curve]; for `CC(C)Cn1c(=O)c2ccccc2n2c(CCC(=O)N3CCN(c4cccc(Cl)c4)CC3)nnc12`, 20 µM [falling, partial curve]. On the same count and under the same terms, for `COCCCN(Cc1ccco1)C(=O)c1cc2c(s1)-c1ccccc1OC2` the value was 20 µM [falling, partial curve]; for `O=C(COc1ccccc1)Nc1sc2c(c1C(=O)Nc1ccccc1Cl)CCCCC2`, 7.94 µM [falling, partial curve]; for `CCN(Cc1nc(-c2cccc(C)c2)no1)S(=O)(=O)c1ccc(C)cc1`, 31.6 µM [falling, single point]. Regarding `Cc1ccccc1-c1noc(-c2ccc(N3CCN(c4ccccc4)CC3)c([N+](=O)[O-])c2)n1`, the half-maximal activity concentration (AC50) under setting [1] was 1.58 µM [rising, partial curve]. `CC(=O)OCc1cc(=O)n2nc(C3CCCCC3)sc2n1`: under setting [1], the concentration at half-maximal activity (AC50) was 12.6 µM [falling, partial curve]. Take `CCOc1ccc(NC(=O)CCN2CCN(S(=O)(=O)c3cc(Cl)ccc3OC)CC2)cc1`: under setting [1], the AC50 was 12.6 µM [falling, partial curve]. Same read-out and setting: for `Cc1c(C(=O)NC(C)c2ccccc2)sc2ncnc(N(C)C3CCCCC3)c12` (stereo unspecified) the value was 25.1 µM [falling, partial curve]; for `O=S(=O)(Nc1ccc(-c2ccc(N3CCCCC3)nn2)cc1)c1ccc(OC(F)(F)F)cc1`, 12.6 µM [falling, partial curve]. With `Cc1nn(-c2ccc(N3CCCCC3)nn2)c(C)c1CCC(=O)NCc1ccc(F)cc1`, the half-maximal activity concentration (AC50) under setting [1] was 6.31 µM [falling, partial curve, poor fit]. Turning to `FC(F)(F)c1cccc(-n2cc(-c3ccccc3)c3c(N4CCCCC4)ncnc32)c1`, under setting [1], the AC50 is 10 µM [falling, partial curve, poor fit]. For the molecule `CCOC(=O)C1CCN(c2nc3c(S(=O)(=O)c4ccc(Br)cc4)nnn3c3ccsc23)CC1`, the half-maximal activity concentration (AC50) under setting [1] was 5.01 µM [falling, single point]. For the molecule `COc1ccc(CNC(=O)c2cc3c(-c4ccc(Cl)cc4)nn(C)c3s2)cc1`, under setting [1], the AC50 was 3.98 µM [falling, full curve].

In the case of `COc1ccc(S(=O)(=O)N(CCc2ccccc2)CC(=O)NCc2ccccc2)cc1`, the concentration at half-maximal activity (AC50) under setting [1] was 12.6 µM [falling, partial curve].

In the case of `Cn1c(=O)n(C)c2cc(NS(=O)(=O)c3ccc(F)cc3)c(NCc3ccccc3)cc21`, the AC50 under setting [1] was 20 µM [falling, partial curve]. As to `OC(CN1c2ccccc2Sc2ccccc21)Cn1nnc2ccccc21` (stereo unspecified), the AC50 (measured here: IkB-luc green channel) is 39.8 µM [falling, single point] and the AC50 (measured here: control luc red channel) was 12.6 µM [falling, partial curve]. `CCOC(=O)c1cccc(NC(=O)Cn2nc3c(cc2=O)CCCC3)c1`: the concentration at half-maximal activity (AC50) under setting [1] is 0.2 µM [falling, full curve]. Same read-out and setting: for `CCOC(=O)c1c(S(=O)(=O)N2CCCC(C(=O)Nc3ccc(OCC)cc3)C2)c(C)n(C)c1C` (stereo unspecified) the value was 39.8 µM [rising, single point]. For `CCC1Oc2ccccc2N(CC(=O)NCCN2CCc3ccccc3C2)C1=O` (stereo unspecified), the AC50 under setting [1] is 10 µM [falling, partial curve]. On the same count and under the same terms, for `Cc1ccc(-c2cc(NC(=O)c3ccccc3Cl)on2)cc1` the value was 0.794 µM [falling, full curve]; for `O=C(Nc1nc2nc(-c3ccccc3)cc(-c3ccccc3)n2n1)c1ccco1`, 10 µM [falling, partial curve]; for `O=C(Nc1ccc(C(=O)N2CCN(c3ccc(F)cc3)CC2)cc1)c1nsc2ccccc12`, 0.398 µM [falling, full curve].

These data come from PubChem BioAssay AID445 (National Center for Advancing Translational Sciences (NCATS), 2006).
